Test results: US20240150301A1, “METHODS OF MODULATING ANDROGEN RECEPTOR CONDENSATES” (ETERN BIOPHARMA (SHANGHAI) CO., LTD., priority 2021, published 2024)

System: LNCaP cells
Test: Cell proliferation assay (CellTiter-Glo), LNCaP
Type: cell-based
Conditions: Homo sapiens, 96 h, read-out: LNCaP IC50 AR-positive (cell proliferation)
Experimental: To evaluate the effect of exemplary compounds on proliferation of AR/AR-V7-dependent prostate cancer cells, cell viability assay was performed in LNCaP (AR-positive), 22Rv1 (AR-positive; AR-V7 positive), VCaP (AR-positive; AR-V7 positive), and DU145 (AR-negative) cells, respectively.
LNCaP cells were seeded in charcoal stripped FBS/phenol red-free RPMI medium in 96-well plates for 24 h before pretreating for 1 h with test compounds prior to addition of 0.2 nM DHT for 4 days. 22Rv1 or VCaP cells were cultured in charcoal stripped FBS/phenol red-free RPMI medium for 24 h before addition of test compounds for 4 days. DU145 cells were seeded in complete medium for 24 h before addition of test compounds for 4 days. Cell proliferation was measured with CellTiter-Glo® Luminescent Cell Viability Assay (Promega). In LNCaP cells, DHT-dependent cell growth is calculated by measuring the difference between vehicle control (DMSO) cells treated with or without 0.2 nM DHT. The IC50 values were determined using the four parameter fit via GraphPad Prism graphing software.

IC50: 0.23 µM
Structure (SMILES): CNC(=O)c1ccc(N2C(=S)N(c3ccc(C#N)c(C(F)(F)F)c3)C(=O)C2(C)C)cc1F [Enzalutamide, reference compound]
